Plain letter strings leave the end groups untold.
Test: peptide made by a vendor (Fmoc solid-phase peptide synthesis)
Conditions: whole synthesis, scale 200 mg resin

Q: With HSQGTFTSDYSKYLDSRRAQDFVQWLMNTKRNRNNIA as the sequence, how does the “crude purity (method not given)” value read?
A: 36% pure

From patent publication US20190160152A1 (OPKO BIOLOGICS LTD., priority 2016, published 2019)
